Results are given in words; binding and its absence hold for the method and conditions named. For some assays here: Binding seen in cells or lysates may run through a third protein. Some entries that bind do so weakly or less than the wild type. For some assays here: Sequences can lack the tags named with a protein.
Legend:
GST-tagged Aurora-A = target: T1, GST-tagged Aurora-A (UniProt O14965); experiment: pull-down; His-tagged PFKFB3 mixed with GST or GST-tagged Aurora-A in binding buffer at 4 °C overnight, glutathione-sepharose beads 2 h, washed five times with PBS; western blotting; both purified
T1 sequence: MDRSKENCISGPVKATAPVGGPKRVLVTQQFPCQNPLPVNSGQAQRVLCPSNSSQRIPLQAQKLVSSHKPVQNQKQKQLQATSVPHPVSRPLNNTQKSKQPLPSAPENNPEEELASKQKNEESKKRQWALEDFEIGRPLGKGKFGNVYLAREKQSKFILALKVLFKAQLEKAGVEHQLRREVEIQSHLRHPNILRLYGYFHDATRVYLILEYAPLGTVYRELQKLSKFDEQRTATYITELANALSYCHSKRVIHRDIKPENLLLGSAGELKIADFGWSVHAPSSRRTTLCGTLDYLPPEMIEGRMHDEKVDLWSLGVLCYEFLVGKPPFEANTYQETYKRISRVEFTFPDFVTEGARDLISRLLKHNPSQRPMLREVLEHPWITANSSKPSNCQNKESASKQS

By UniProt entry, the sequences of proteins in these tests, tags left out.
UniProt Q16875: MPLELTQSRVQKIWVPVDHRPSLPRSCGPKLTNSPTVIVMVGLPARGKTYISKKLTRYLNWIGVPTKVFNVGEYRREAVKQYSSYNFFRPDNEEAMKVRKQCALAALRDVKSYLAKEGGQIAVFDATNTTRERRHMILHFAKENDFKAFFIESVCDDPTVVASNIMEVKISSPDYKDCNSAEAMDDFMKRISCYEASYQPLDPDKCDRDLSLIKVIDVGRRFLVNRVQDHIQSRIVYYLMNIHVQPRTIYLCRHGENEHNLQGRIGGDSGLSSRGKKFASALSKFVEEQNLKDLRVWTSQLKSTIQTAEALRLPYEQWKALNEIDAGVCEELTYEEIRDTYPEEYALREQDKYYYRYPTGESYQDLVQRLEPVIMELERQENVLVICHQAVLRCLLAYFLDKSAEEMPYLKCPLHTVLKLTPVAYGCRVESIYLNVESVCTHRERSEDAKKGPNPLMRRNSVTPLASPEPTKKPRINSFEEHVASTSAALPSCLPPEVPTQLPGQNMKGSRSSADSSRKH

[1] = target: T2, Aurora-A (human (endogenous in TPC-1)) (UniProt O14965); experiment: co-IP; TPC-1 cells lysed with IP lysis buffer; lysates incubated with anti-Aurora-A antibody or PFKFB3 antibody overnight at 4 °C, protein A + G agarose beads 2 h at 4 °C, washed 3 times; western blotting
T2 sequence: T1 sequence

Row | Substance | binding (GST-tagged Aurora-A) | binding [1]
1 | His-tagged PFKFB3 (from UniProt Q16875 1-520) (enzyme) | binds | –
2 | PFKFB3 (6-phosphofructo-2-kinase / fructose-2,6-bisphosphatase) (from UniProt Q16875 1-520) | – | binds

Reference: publication PMC10060208
